Data on two molecules can be found in article PMC4287440.

The chains behind the UniProt entries cited, without tags or fusion partners.
UniProt P47035: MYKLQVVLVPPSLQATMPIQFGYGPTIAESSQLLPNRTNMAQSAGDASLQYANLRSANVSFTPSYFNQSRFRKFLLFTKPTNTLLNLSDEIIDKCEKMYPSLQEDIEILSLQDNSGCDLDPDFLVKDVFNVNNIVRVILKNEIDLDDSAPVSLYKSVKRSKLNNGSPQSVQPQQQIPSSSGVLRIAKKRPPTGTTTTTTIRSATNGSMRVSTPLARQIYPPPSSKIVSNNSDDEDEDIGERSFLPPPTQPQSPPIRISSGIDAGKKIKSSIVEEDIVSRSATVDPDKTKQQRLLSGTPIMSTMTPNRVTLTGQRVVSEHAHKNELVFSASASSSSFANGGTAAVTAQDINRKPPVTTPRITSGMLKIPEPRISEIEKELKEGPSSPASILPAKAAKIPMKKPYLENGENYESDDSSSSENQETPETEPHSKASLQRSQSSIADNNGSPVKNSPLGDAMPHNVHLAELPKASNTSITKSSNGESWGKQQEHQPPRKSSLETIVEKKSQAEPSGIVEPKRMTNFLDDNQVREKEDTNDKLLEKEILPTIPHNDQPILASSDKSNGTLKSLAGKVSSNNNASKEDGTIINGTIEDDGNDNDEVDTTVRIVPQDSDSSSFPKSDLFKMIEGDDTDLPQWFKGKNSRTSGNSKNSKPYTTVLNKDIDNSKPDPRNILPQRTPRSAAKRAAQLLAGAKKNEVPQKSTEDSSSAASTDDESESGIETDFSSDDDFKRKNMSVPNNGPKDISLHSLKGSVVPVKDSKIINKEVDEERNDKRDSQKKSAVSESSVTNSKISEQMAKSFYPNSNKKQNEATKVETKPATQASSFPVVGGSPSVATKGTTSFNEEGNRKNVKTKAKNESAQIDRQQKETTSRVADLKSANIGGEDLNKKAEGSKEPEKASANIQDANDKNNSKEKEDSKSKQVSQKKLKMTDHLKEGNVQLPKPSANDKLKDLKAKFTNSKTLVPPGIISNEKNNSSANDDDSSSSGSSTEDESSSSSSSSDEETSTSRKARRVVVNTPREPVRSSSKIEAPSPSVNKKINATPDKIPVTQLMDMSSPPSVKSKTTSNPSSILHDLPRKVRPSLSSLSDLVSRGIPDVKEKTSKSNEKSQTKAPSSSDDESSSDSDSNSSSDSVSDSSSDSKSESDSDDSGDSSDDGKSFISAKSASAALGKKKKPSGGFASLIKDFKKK

One test has as its target T1, Nur1-Pk (S. cerevisiae) (UniProt Q12066).
T1 sequence: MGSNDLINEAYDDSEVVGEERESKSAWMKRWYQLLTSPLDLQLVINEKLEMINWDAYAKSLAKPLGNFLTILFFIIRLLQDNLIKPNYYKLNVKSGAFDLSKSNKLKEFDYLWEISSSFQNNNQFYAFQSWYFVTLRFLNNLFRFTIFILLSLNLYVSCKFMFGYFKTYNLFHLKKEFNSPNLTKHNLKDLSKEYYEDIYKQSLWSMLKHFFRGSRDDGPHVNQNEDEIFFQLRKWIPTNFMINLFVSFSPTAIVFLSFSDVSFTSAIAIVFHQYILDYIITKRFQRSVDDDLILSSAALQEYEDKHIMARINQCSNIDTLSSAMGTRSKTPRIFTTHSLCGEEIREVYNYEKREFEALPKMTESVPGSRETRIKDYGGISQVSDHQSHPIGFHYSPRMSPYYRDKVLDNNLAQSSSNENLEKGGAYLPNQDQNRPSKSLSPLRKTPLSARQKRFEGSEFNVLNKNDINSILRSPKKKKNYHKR
Briefly: co-IP; Nur1 immunoprecipitated from yeast cell extracts throughout the cell cycle and Cdc14 detected in the immunoprecipitates; no figure cited.

In the next test the target is Net1-myc (S. cerevisiae) (UniProt P47035). The experiment in a line: co-IP; Net1-myc immunoprecipitated with α-myc antibody on Protein A Dynabeads from yeast cell extracts in EBXG buffer (50 mM HEPES pH 8.0, 100 mM KCl, 2.5 mM MgCl2, 10% glycerol, 0.25% Triton X-100, 1 mM DTT); extracts taken at intervals through a synchronous cell cycle after G1 release; Nur1-Pk examined by Western blot.

These are yes or no findings as the source states them, for the method shown. In cells and extracts the contact can be indirect. Some results given as binding are weak or reduced against the parent protein; the word gives no strength.

B1: Cdc14 (enzyme, UniProt Q00684 1-551)
chain: MRRSVYLDNTIEFLRGRVYLGAYDYTPEDTDELVFFTVEDAIFYNSFHLDFGPMNIGHLYRFAVIFHEILNDPENANKAVVFYSSASTRQRANAACMLCCYMILVQAWTPHQVLQPLAQVDPPFMPFRDAGYSNADFEITIQDVVYGVWRAKEKGLIDLHSFNLESYEKYEHVEFGDFNVLTPDFIAFASPQEDHPKGYLATKSSHLNQPFKSVLNFFANNNVQLVVRLNSHLYNKKHFEDIGIQHLDLIFEDGTCPDLSIVKNFVGAAETIIKRGGKIAVHCKAGLGRTGCLIGAHLIYTYGFTANECIGFLRFIRPGMVVGPQQHWLYLHQNDFREWKYTTRISLKPSEAIGGLYPLISLEEYRLQKKKLKDDKRVAQNNIEGELRDLTMTPPSNGHGALSARNSSQPSTANNGSNSFKSSAVPQTSPGQPRKGQNGSNTIEDINNNRNPTSHANRKVVIESNNSDDESMQDTNGTSNHYPKVSRKKNDISSASSSRMEDNEPSATNINNAADDTILRQLLPKNRRVTSGRRTTSAAGGIRKISGSIKK
Consider B1, for which the binding entry with Nur1-Pk (S. cerevisiae) is given as “binds”.

B2: Nur1-Pk (protein, UniProt Q12066 1-484)
chain: T1 sequence
With B2, in the test with Net1-myc (S. cerevisiae), the binding result is recorded as “binds”.
